# Results: patent publication US5334728A (The Trustees of The University of Pennsylvania, priority 1992, dated 1994)
# The chains behind the UniProt entries cited, without tags or fusion partners.
# UniProt P61169, whole entry: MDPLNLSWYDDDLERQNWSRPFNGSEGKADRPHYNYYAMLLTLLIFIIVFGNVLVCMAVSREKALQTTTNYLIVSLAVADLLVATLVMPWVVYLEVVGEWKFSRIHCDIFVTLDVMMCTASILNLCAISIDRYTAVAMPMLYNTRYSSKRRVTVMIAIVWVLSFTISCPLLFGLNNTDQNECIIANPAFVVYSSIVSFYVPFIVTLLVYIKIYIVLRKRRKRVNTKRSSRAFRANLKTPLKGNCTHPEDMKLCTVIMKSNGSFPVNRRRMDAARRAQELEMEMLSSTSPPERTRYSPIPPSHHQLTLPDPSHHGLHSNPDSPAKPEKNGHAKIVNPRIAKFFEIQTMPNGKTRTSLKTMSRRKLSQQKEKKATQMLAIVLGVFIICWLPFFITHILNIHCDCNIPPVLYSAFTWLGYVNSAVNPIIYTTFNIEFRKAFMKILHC
# Target: T1, dopamine D-2 receptor (Rattus norvegicus, UniProt P61169)
# T1 construct: Striatal tissues were excised, pooled and homogenized in 100 volumes (w/v) of ice-cold Tris-HCl buffer; from tissue; host or cells: rat striatum (male Sprague-Dawley), twice-centrifuged membrane homogenate
# Assay: Competition binding using [^125 I]IBF, rat striatal membranes
# Conditions: [^125 I]IBF 0.15-0.30 nM, mean ± SEM of three to five determinations
# Protocol: *0.15-0.30 nM [^125 I]IBF was incubated in the presence of the
# indicated compounds in 7-11 concentrations and of membrane preparation
# from rat striatum. Each value represents the mean ± SEM of three to
# Male Sprague-Dawley rats (200-250 g) were decapitated, and the brains were removed and placed in ice. Striatal tissues were excised, pooled and homogenized in 100 volumes (w/v) of ice-cold Tris-HCl buffer (50 mM), pH 7.4. The homogenates were centrifuged at 20,000× g for 20 min. The resultant pellets were rehomogenized in the same buffer and centrifuged again. The final pellets were resuspended in assay buffer containing: 50 mM Tris buffer pH 7.4, 120 mM NaCl, 5 mM KCl, 2 mM CaCl2 and 1 mM MgCl2 and kept at -20° C. for the following binding assay.
# The binding assays were performed by incubating 50 μl of tissue preparations containing 40-60 μg of protein with appropriate amounts of l-125 labeled ligand and competitors in a total volume of 0.2 ml of the assay buffer. After an incubation period of 15 min at 37° C. (with stirring), the samples were rapidly filtered in the cell harvester (Brandel M-24R) under vacuum through Whatman GF/B glass fiber filters pretreated with 0.2% protamine base and washed with 3×5 ml of cold (4° C.) 50 mM Tris-HCl buffer, pH 7.4. […] The filters were counted in a gamma counter (Beckman 5500) at an efficiency of 70%.
compound,measurement,value
CC(C)NC[C@H](O)COc1cccc2ccccc12 (racemic) [Propanolol],Ki,> 10 µM
